From PubChem BioAssay AID1347075 (National Center for Advancing Translational Sciences (NCATS), 2019)
In all, about 400,000 compounds went through this assay and about 5,500 (1.4%) were called active. The shares of active, inactive and inconclusive entries below differ from those in the screen. Calls come from the whole dose curve; as a rule, active = well fitted cell-killing curve with a large enough effect; inconclusive = small, poorly fitted or top-dose-only effect, or effect the other way; inactive = flat fitted curve, though single readings scatter. Potencies of inconclusive entries are doubtful fits and often do not repeat.

Assay: qHTS assay for MDR1-selective chemotherapeutics: Primary screen using the parental adenocarcinoma cell KB-3-1; note: nearly all actives have a fitted effect of over 60% in size
Details: KB-3-1 viability, CellTiter-Glo ATP luminescence, 72 h; activity change, negative = cytotoxic: at 46.1 µM (top of the series)
In short: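 Luminescent ATP read-out (CellTiter-Glo) measures survival of drug-naive KB-3-1 cells after 72 h compound exposure at 37 °C. Titration series was screened from lowest to highest concentration, with DMSO vehicle plates as background controls.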
% is set by controls: 0 for no effect and ±100 for the full control effect; potency is the fitted concentration of half-maximal effect.

Q: With `O=C(CSc1ncnc2c1cnn2-c1ccc(F)cc1)NC1CCCC1` as the compound, how does the Potency read?
A: The Potency was inconclusive: 25.9 µM [cytotoxic, partial curve, poor fit].

Q: Which “activity change, negative = cytotoxic” value does the source give for `COc1ccc(N2CCN(C(=O)c3ccc4nc(N5CCC(C)CC5)sc4c3)CC2)cc1` here?
A: Its value is inactive: -0.633%.

Q: For `O=C(Nc1ccccc1-c1ccccc1)c1ccc(Cl)c([N+](=O)[O-])c1`, which Potency is on record?
A: The Potency was active: 16.4 µM.

Q: With `COc1cccc(CN(C)CC(=O)Nc2c(C)cccc2C(C)C)c1` as the compound, how does the Potency read?
A: The Potency was inconclusive: 16.4 µM [cytotoxic, single point].

Q: With `CCCCn1c(N)c(N(CCOC)C(=O)CSc2nnc(C)n2-c2ccc(OC)cc2)c(=O)[nH]c1=O` as the compound, how does the Potency read?
A: The Potency was inconclusive: 29.1 µM [rising, single point].

Q: Which Potency does the source give for `O=C1CCN(C(=O)c2ccccc2)c2ccccc21` here?
A: Its Potency is inconclusive: 23.1 µM [cytotoxic, single point].

Q: For `Nc1c(Br)cc(Br)c2c1[nH]c(=O)c1ccccc12`, which Potency is on record?
A: The Potency was inconclusive: 20.6 µM [cytotoxic, single point].

Q: Which “activity change, negative = cytotoxic” value does the source give for `CCOC(=O)c1cnc(SC)nc1Oc1cccc(NS(=O)(=O)c2ccc(F)cc2)c1` here?
A: Its value is inactive: 3.42%.

Q: With `CCn1c(C)[n+](Cc2ccccc2)c2ccc(C(=O)OC)cc21` as the compound, how does the Potency read?
A: Its Potency is inconclusive: 23.1 µM [rising, single point].

Q: For `COc1ccc(C2c3[nH]c4ccccc4c3CCN2C(=O)c2cc3ncccn3n2)c(F)c1` (centres undefined), which Potency is on record?
A: The Potency was inconclusive: 23.1 µM [cytotoxic, single point].

Q: Which Potency does the source give for `S=C(Nc1cc(Cl)ccc1Oc1ccccc1)N1CCN(c2ccccn2)CC1` here?
A: Its Potency is inconclusive: 20.6 µM [cytotoxic, single point].

Q: Which Potency does the source give for `C(=C1c2ccccc2-c2ccccc21)c1ccncc1` here?
A: Its Potency is inconclusive: 11.6 µM [cytotoxic, partial curve, poor fit].

Q: Which Potency does the source give for `CC1(C)Cc2c(sc3nc(N/N=C/c4ccccc4)[nH]c(=O)c23)CO1` here?
A: Its Potency is inconclusive: 29.1 µM [cytotoxic, single point].

Q: Which “activity change, negative = cytotoxic” value does the source give for `COc1cc(/C=C/C(=O)N[C@@H](Cc2c[nH]c3ccccc23)C(=O)O)ccc1O` here?
A: Its value is inactive: 5.84%.

Q: With `Nc1cc(-c2ccc(Br)cc2)nn1Cc1ccccc1` as the compound, how does the Potency read?
A: Its Potency is inconclusive: 18.4 µM [cytotoxic, partial curve, poor fit].

Q: Which Potency does the source give for `O=c1c(Cl)c2oc3ccccc3nc-2c2ccccc12` here?
A: The Potency was inconclusive: 29.1 µM [cytotoxic, single point].

Q: With `CCn1c(CSc2nc(C)cc(C)n2)nnc1SCC(=O)Nc1ccccc1` as the compound, how does the “activity change, negative = cytotoxic” value read?
A: Its value is inactive: -0.23%.

Q: Which “activity change, negative = cytotoxic” value does the source give for `Cc1ccc(Cn2c(=O)n(CC3CCC(C(=O)N4CCOCC4)CC3)c(=O)c3sccc32)cc1` (centres undefined) here?
A: Its value is inactive: 4.05%.

Q: With `CCOC(=O)C1=C(CN2CCN(C(=O)c3ccco3)CC2)NC(=O)NC1c1ccc(Cl)cc1` (centres undefined) as the compound, how does the “activity change, negative = cytotoxic” value read?
A: The value was inactive: -0.2%.
